According to PubChem BioAssay AID1487 (National Center for Advancing Translational Sciences (NCATS), 2009):
This is one part of the list. The main result of the screen is listed elsewhere. These columns were measured beside it and carry no call. The list favours compounds with an active or inconclusive main result. Words in brackets tell the shape of the fitted curve; partial curves, single points and poor fits give uncertain potencies.

Assay: qHTS Assay for Modulators of Lamin A Splicing
Conditions: HeLa LMNA splicing GFP/RFP minigene ratio, 48 h
Outline: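 S3 HeLa stable clones carrying a lamin A-EGFP splicing minigene plus DsRed2 were seeded at 600 cells/well in Opti-MEM with 2% FBS, pin-dosed and incubated 48 h at 37°C. Acumen cytometry (488 nm) gave the GFP/RFP total-intensity ratio.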

[1] = measured here: GFP splicing reporter channel
[2] = measured here: RFP viability control channel

SMILES	AC50 [1]	AC50 [2]
Cc1ccc(CSCC(=O)N2CCN(c3ccc(F)cc3)CC2)cc1	35.5 µM [rising, single point]	35.5 µM [rising, single point]
O=S(=O)(/N=C(/Nc1ccccn1)c1ccc(Cl)cc1)c1ccc(Cl)cc1	–	35.5 µM [rising, single point]
CC(=O)Oc1c(S(=O)(=O)c2ccc(C)cc2)c(C)nn1C(C)(C)C	5.01 µM [falling, partial curve, poor fit]	22.4 µM [falling, partial curve]
Nc1c(C(=O)Nc2ccccc2)sc2nc3c(c(-c4ccco4)c12)CCC3	–	4.47 µM [rising, full curve, poor fit]
C=CCNC(C(=O)Nc1cccc(OC)c1)c1ccccc1 (stereo not drawn)	10 µM [falling, partial curve]	–
Cc1cccc(N(CC(=O)Nc2ccc(Br)cc2)S(C)(=O)=O)c1C	0.0178 µM [falling, full curve, poor fit]	–
O=C(Nc1ccc(OC(F)F)cc1)Nc1cccc(C(F)(F)F)c1	–	11.2 µM [rising, single point]
O=C(Nc1nc2ccccc2s1)c1ccc2c(c1)OCO2	–	0.398 µM [rising, partial curve, poor fit]
O=C(Nc1ccc(CN2CCOCC2)cc1)c1ccc(-c2cc(Cl)ccc2Cl)o1	–	14.1 µM [rising, partial curve]
COc1ccc(OC)c(NC(=O)c2c(NCc3ccc(C)o3)sc3c2CCC(C)C3)c1 (stereo not drawn)	7.08 µM [falling, partial curve]	–
COc1ccc(C(=O)NCc2ccc3c(c2)CCN3C(=O)c2ccncc2)cc1	1.12 µM [falling, partial curve]	2.82 µM [falling, partial curve, poor fit]
OCCCc1nc2n(n1)C(c1cccs1)C=C(c1ccc(Br)cc1)N2 (stereo not drawn)	35.5 µM [falling, single point]	35.5 µM [falling, single point]
CCN1/C(=C/c2ccc3cccc(C)c3[n+]2CC)Sc2ccccc21	–	10 µM [falling, partial curve]
Fc1ccc(-c2nnc(NC3=NCCCCC3)o2)cc1	14.1 µM [rising, partial curve, poor fit]	–
Cc1ccc(CN2CCCn3nc(C(=O)NCCc4ccc(Cl)cc4)cc3C2=O)cc1	35.5 µM [falling, partial curve, poor fit]	–
Cc1ccc(Oc2nc3ccccn3c(=O)c2/C=C(\C#N)C(=O)Nc2c(C)n(C)n(-c3ccccc3)c2=O)cc1	–	10 µM [rising, partial curve, poor fit]
CCCCOC(=O)n1c(=O)oc2cc(S(=O)(=O)N3CCCCC3)ccc21	–	28.2 µM [rising, single point]
S=c1[nH]nc(-c2ccccc2)n1/N=C/c1ccc(-c2ccccc2Cl)o1	12.6 µM [rising, partial curve, poor fit]	5.01 µM [rising, full curve]

SMILES	AC50 [1]	AC50 [2]
COc1ccccc1C(=O)NCC1CCN(c2ccc(S(=O)(=O)N3CCOCC3)cc2)CC1	–	31.6 µM [rising, single point]
O=C(NCC(c1cccnc1)N1CCN(Cc2ccccc2)CC1)C(=O)Nc1ccc(Cl)cc1 (stereo not drawn)	8.91 µM [falling, full curve, poor fit]	–
CC(C)c1cc(C(=O)Nc2cc(Cl)ccc2O)no1	–	10 µM [rising, partial curve]
CCC(C)NC(=O)c1ccc(-n2c(-c3ccccc3)cc3c2CCCC3)cc1 (stereo not drawn)	25.1 µM [falling, single point]	0.00631 µM [falling, full curve, poor fit]
Cc1ccc(CCNC(=O)C2CCCN(C(=O)c3cc4sccc4n3C)C2)cc1 (stereo not drawn)	14.1 µM [rising, partial curve]	12.6 µM [rising, partial curve]
COc1ccc2c(c1)CCc1c(C(=O)NCCc3ccc(OC)c(OC)c3)noc1-2	–	0.112 µM [rising, partial curve]
Nn1c(SCC(=O)N2CCOCC2)nnc1C1CC1	25.1 µM [rising, single point]	–
CCCCn1cc(C(=O)c2cc(Br)ccc2O)cc(C#N)c1=O	–	25.1 µM [falling, single point]
CCOc1ccc(NC(=S)NC(=O)c2c(Cl)cnn2CC)c([N+](=O)[O-])c1	11.2 µM [rising, single point]	10 µM [rising, single point]
CN(NC(=S)Nc1ccc(OC(F)F)cc1)C(=S)Nc1ccc(OC(F)F)cc1	–	0.112 µM [rising, full curve, poor fit]
CCN(CC)c1ccc(NC(=O)c2ccccc2Br)cc1S(=O)(=O)Nc1ccccc1OC	2.82 µM [rising, single point]	3.55 µM [rising, single point]
O=C(C1CCCN(Cc2nc(-c3ccc(Cl)cc3)no2)C1)N1CCOCC1 (stereo not drawn)	2.51 µM [falling, partial curve, poor fit]	6.31 µM [falling, single point]
COc1ccc2occ(NC(C)=O)c2c1	14.1 µM [rising, single point]	20 µM [rising, single point]
COc1ccc(Nc2nc(Cl)nc(NCc3ccco3)n2)c(OC)c1	0.398 µM [rising, single point]	15.8 µM [rising, partial curve]
S=C(NC1CCCCC1)N(CCc1nc2ccccc2[nH]1)C1CCCC1	12.6 µM [rising, single point]	20 µM [rising, single point]
Cc1cccc(C(=O)NCCc2sc(-c3ccccc3)nc2C)c1	–	1.41 µM [falling, partial curve]
CCOC(=O)c1sc2ccccc2c1S(=O)(=O)Nc1cccc(C(F)(F)F)c1	–	12.6 µM [rising, single point]

Reprinted from the results shown for reference:
SMILES	AC50 [1]	AC50 [2]
Cc1ccc(CCNC(=O)C2CCCN(C(=O)c3cc4sccc4n3C)C2)cc1 (stereo not drawn)	14.1 µM [rising, partial curve]	12.6 µM [rising, partial curve]
COc1ccc2c(c1)CCc1c(C(=O)NCCc3ccc(OC)c(OC)c3)noc1-2	–	0.112 µM [rising, partial curve]
